# Several values for one entry are separate records, joined by “and”; a condition that tells them apart may be missing. Equal values may be shown once. Where a name gives a salt, the structure may show the parent alone. ± gives the standard deviation of the averaged measurements. The list shows a part of the results. Most values come without repeats; read them as rough.
# System: RAW 264.7
# Assay: HMGB1-induced TNF-alpha production relative to HMGB1-stimulated control; higher = more TNF-alpha secretion (less inhibition)
# Settings: stimulus: HMGB1 5 ug/ml, 18 h
# [1] = compound concentration: 1 ug/ml
SMILES,HMGB1-induced TNF-alpha production [1],HMGB1-induced TNF-alpha production (compound concentration: 3 uM)
O.O.O=c1cccc2n1CC1CC2CN(CCO)C1.[Cl][Cu][Cl] (stereo unspecified),88.2%,–
C[C@H](N)CN1CCc2ccc(Br)cc21 [VER-3323 hemifumarate salt],–,111%
CN1[C@@H]2CC[C@H]1C[C@@H](OC(=O)[C@H](CO)c1ccccc1)C2 [Hyoscyamine (L)],–,104%
CN1[C@@H]2CC[C@H]1C[C@@H](OC(=O)[C@H](CO)c1ccccc1)C2 [L-Hyoscyamine],–,76.5%
CN1[C@@H]2CC[C@H]1C[C@@H](OC(=O)[C@H](CO)c1ccccc1)C2,–,100%
Cc1ccc(-c2nc3ccc(C)cn3c2CC(=O)N(C)C)cc1,–,108%
"O=[N+]([O-])c1cc(O)c(O)c([N+](=O)[O-])c1 [3,5-Dinitrocatechol]",–,107%
CN[C@@H]1C[C@@H](c2ccc(Cl)c(Cl)c2)c2ccccc21 [Indatraline hydrochloride],–,110%
C[C@H]1O[C@H](O[C@H]2[C@H](O)[C@@H](O)[C@@H](O)[C@H](O)[C@@H]2O)[C@@H](N)C[C@@H]1NC(=N)C(=O)O [Kasugamycin],–,101%
O=C1CN=C(c2ccccc2Cl)c2cc([N+](=O)[O-])ccc2N1,–,80.6%
"CC12CCC3C(CCC4=C(O)C(=O)CCC43C)C1CCC2=O (stereo unspecified) [4-Androsten-4-ol-3,17-dione]",–,96.5%
Cc1cc(O)ccc1Cl,–,86.8%
C[C@@H]1CC[C@@]2(OC1)O[C@H]1[C@@H](O)[C@H]3[C@@H]4CC[C@H]5C[C@@H](O[C@@H]6O[C@H](CO)[C@H](O[C@@H]7O[C@H](CO)[C@@H](O)[C@H](O[C@@H]8OC[C@@H](O)[C@H](O)[C@H]8O)[C@H]7O[C@@H]7O[C@H](CO)[C@H](O)[C@H](O[C@@H]8O[C@H](CO)[C@@H](O)[C@H](O)[C@H]8O)[C@H]7O)[C@H](O)[C@H]6O)[C@H](O)C[C@]5(C)[C@H]4CC[C@]3(C)[C@H]1[C@@H]2C [Digitonin],94%,–
C=C(C)[C@H]1CN[C@H](C(=O)O)[C@H]1CC(=O)O [Kainic acid],–,115%
C=C(C)[C@H]1CN[C@H](C(=O)O)[C@H]1CC(=O)O,–,81%
c1ccc2c(N3CCNCC3)cccc2c1 [1-(1-Naphthyl)piperazine hydrochloride],–,98.3%
CC[C@H]1CN2CC[C@H]1C[C@@H]2[C@@H](O)c1ccnc2ccc(OC)cc12,–,94.8%
CC[C@H]1CN2CC[C@H]1C[C@@H]2[C@@H](O)c1ccnc2ccc(OC)cc12 [Hydroquinidine],55.6%,–
"CCCN(CCC)CCc1c[nH]c2ccc(C(N)=O)cc12 [N,N-Dipropyl-5-carboxamidotryptamine maleate]",–,89.1%
COc1ccc2c(c1)c(CCN1CCOCC1)c(C)n2C(=O)c1cccc(Cl)c1Cl,–,110%
COc1ccc(CN2CCNCC2)c(OC)c1OC,–,83.1%
COc1ccc(CN2CCNCC2)c(OC)c1OC [Trimetazidine dihydrochloride],–,56.8%
C[C@]12CC[C@H]3[C@@H](CCC4=CC(=O)CC[C@@H]43)[C@@H]1CC[C@@H]2O [19-Nortestosterone],–,89.5%
C[C@]12CC[C@H]3[C@@H](CCC4=CC(=O)CC[C@@H]43)[C@@H]1CC[C@@H]2O [Nandrolone],–,102%
O=C(N[C@H]1CN2CCC1CC2)c1ccc(Cl)cc1,–,105%

SMILES,HMGB1-induced TNF-alpha production [1],HMGB1-induced TNF-alpha production (compound concentration: 3 uM)
"O=[N+]([O-])c1ccc2nc(N3CCNCC3)ccc2c1 [Quipazine, 6-nitro-, maleate]",–,105%
C=C[C@H]1CN2CC[C@H]1C[C@H]2[C@H](OC(=O)OCC)c1ccnc2ccc(OC)cc12,–,87%
Oc1cccc2cccnc12,–,95.2%
COc1ccc(CCN)cc1OC [Homoveratrylamine],–,94%
CC1=C(O)C(=O)C=C2C1=CC=C1[C@@]2(C)CC[C@@]2(C)[C@@H]3C[C@](C)(C(=O)O)CC[C@]3(C)CC[C@]12C,–,-4.18%
CC[C@@H](C)C(=O)O[C@H]1[C@H](O)[C@H]2[C@@H](CN3C[C@@H](C)CC[C@H]3[C@@]2(C)O)[C@@H]2C[C@]34O[C@]5(O)[C@@H](OC(=O)[C@](C)(O)[C@@H](C)O)CC[C@@]3(C)[C@@H]5[C@@H](OC(C)=O)[C@@H](OC(C)=O)[C@H]4[C@@]21O (stereo in doubt),–,106%
C[N+](C)(C)CC#CCOC(=O)Nc1cccc(Cl)c1,–,80.9%
CCC(C)C1O[C@]2(C=C[C@@H]1C)C[C@@H]1CC(C/C=C(\C)[C@@H](OC3C[C@H](OC)[C@@H](OC4C[C@H](OC)[C@@H](O)[C@H](C)O4)[C@H](C)O3)[C@@H](C)/C=C/C=C3\COC4[C@H](O)C(C)=CC(C(=O)O1)[C@]34O)O2 (stereo partly specified) [Avermectin B1a],–,77.5%
CN1C[C@@H](NS(=O)(=O)N(C)C)C[C@@H]2c3cccc4c3c(cn4C)C[C@H]21 [Mesulergine],–,97.3%
Oc1ccc2c3c1O[C@H]1c4[nH]c5c(c4C[C@@]4(O)[C@@H](C2)N(CC2CC2)CC[C@]314)C[C@@]1(O)[C@H]2Cc3ccc(O)c4c3[C@@]1(CCN2CC1CC1)[C@H]5O4 [nor-Binaltorphimine dihydrochloride],–,111%
OC1CCCCC1N1CCC(c2ccccc2)CC1 (racemic) [(±)-Vesamicol hydrochloride],–,111%
CCCN1C[C@H](CSC)C[C@@H]2c3cccc4[nH]cc(c34)C[C@H]21 [Pergolide],–,107%
CCCN1C[C@H](CSC)C[C@@H]2c3cccc4[nH]cc(c34)C[C@H]21,–,80.4% and 59.8%
CCCN1C[C@H](CSC)C[C@@H]2c3cccc4[nH]cc(c34)C[C@H]21 [Pergolide mesylate],55.8%,73.6%
CCCN1C[C@H](CSC)C[C@@H]2c3cccc4[nH]cc(c34)C[C@H]21 [Pergolide methanesulfonate],–,110%
CN1CC[C@]23CCCC[C@H]2[C@H]1Cc1ccc(O)cc13,–,112%
CCCCc1ccc(C(=O)O)nc1 [Fusaric acid ; 5-butylpicolinic acid],57%,–
CCCCc1ccc(C(=O)O)nc1 [Fusaric acid],–,86.4%
N.N.[Cl][Pt][Cl] [Cisplatin],–,125%
N.N.[Cl][Pt][Cl],–,112 ± 9.9%
C=C(C)[C@@H]1[C@H]2OC(=O)[C@@H]1[C@]1(O)C[C@H]3O[C@]34C(=O)O[C@H]2[C@]14C.CC(C)(O)[C@@H]1[C@H]2OC(=O)[C@@H]1[C@]1(O)C[C@H]3O[C@]34C(=O)O[C@H]2[C@]14C [Picrotin - Picrotoxinin],–,102%
COc1ccc2[nH]cc(CCN)c2c1 [5-Methoxytryptamine],–,108%
COc1ccc2[nH]cc(CCN)c2c1 [O-Methylserotonin hydrochloride],–,92.7%
C/C=C1/C[N@+]2(C)CC[C@]34C(=C(C=O)[C@H]1C[C@@H]32)Nc1ccccc14,79.2%,–
Cc1ncc(CNC(=O)N(CCCl)N=O)c(N)n1,–,85.2 ± 9.1%

SMILES,HMGB1-induced TNF-alpha production [1],HMGB1-induced TNF-alpha production (compound concentration: 3 uM)
Cc1ncc(CNC(=O)N(CCCl)N=O)c(N)n1 [Nimustine hydrochloride],–,113%
COC(=O)[C@]1(C)CC[C@]2(C)CC[C@]3(C)C4=CC=C5C(=CC(=O)C(O)=C5C)[C@]4(C)CC[C@@]3(C)[C@@H]2C1,–,6.04%
C#C[C@]1(O)CC[C@H]2[C@@H]3CCC4=Cc5nc6nc7ccccc7n6cc5C[C@]4(C)[C@H]3CC[C@@]21C,–,85.6%
NCCc1cc(O)c(O)cc1O,–,80.8%
CCC(=O)O[C@@](Cc1ccccc1)(c1ccccc1)[C@@H](C)CN(C)C [Levopropoxyphene napsylate],–,131%
CC(C)=CCC[C@]1(C)C=Cc2c(O)c3c(c(CC=C(C)C)c2O1)O[C@]12C(=C[C@@H]4C[C@H]1C(C)(C)O[C@@]2(C/C=C(/C)C(=O)O)C4=O)C3=O,–,-3.1%
NC(CCP(=O)(O)O)C(=O)O (racemic) [(±)-2-Amino-4-phosphonobutyric acid],–,97.3%
O=C1C[C@@H]2OCC=C3CN4CC[C@]56c7ccccc7N1[C@H]5[C@H]2[C@H]3C[C@H]46,–,90.2 ± 8.6%
O=C1C[C@@H]2OCC=C3CN4CC[C@]56c7ccccc7N1[C@H]5[C@H]2[C@H]3C[C@H]46 [Strychnine],84%,101%
N#Cc1nn(-c2c(Cl)cc(C(F)(F)F)cc2Cl)c(N)c1[S+]([O-])C(F)(F)F (stereo unspecified),–,85.5 ± 1.4%
CC[C@@]1(O)C(=O)OCc2c1cc1n(c2=O)Cc2cc3ccccc3nc2-1,–,45.6%
"CC[C@@]1(O)C(=O)OCc2c1cc1n(c2=O)Cc2cc3ccccc3nc2-1 [Camptothecine (S,+)]",–,70.3%
CC[C@@]1(O)C(=O)OCc2c1cc1n(c2=O)Cc2cc3ccccc3nc2-1 [(S)-(+)-Camptothecin],–,58.3%
CC[C@@]1(O)C(=O)OCc2c1cc1n(c2=O)Cc2cc3ccccc3nc2-1 [Camptothecin],7.29%,40.4%
C=CCN(C1=NCCN1)c1c(Cl)cccc1Cl [Alinidine],–,78.4%
"Cc1c(C(=O)c2cccc3ccccc23)c2cccc3c2n1[C@H](CN1CCOCC1)CO3 [( R)-(+)-WIN 55,212-2 mesylate]",–,89.1%
N=C(N)c1ccc(CS(=O)(=O)F)cc1 [4-Amidinophenylmethanesulfonyl fluoride hydrochloride],–,109%
CC(CCc1ccccc1)NC(C)C(O)c1ccc(O)cc1 (stereo unspecified) [Nylidrin],–,91.2%
CC(CCc1ccccc1)NC(C)C(O)c1ccc(O)cc1 (stereo unspecified),–,56.4%
CC(CCc1ccccc1)NC(C)C(O)c1ccc(O)cc1 (stereo unspecified) [Nylidrin hydrochloride],–,61.7%
COc1cccc(C2(O)CCCCC2CN(C)C)c1 (stereo unspecified) [Tramadol hydrochloride],–,117%
COc1cccc(C2(O)CCCCC2CN(C)C)c1 (stereo unspecified),–,79.1%
COc1cccc(C2(O)CCCCC2CN(C)C)c1 (stereo unspecified) [Tramadol],–,96.6 ± 18%

# Reference: the supplement of paper PMC3682954
